Data on 36 targets can be found in the supplement of paper PMC12067093, “Discovery and optimisation of a covalent ligand for TRIM25 and its application to targeted protein ubiquitination” (Chemical Science, 2025).

By UniProt entry, the sequences of proteins in these tests, tags left out. Where a name states a change or a piece, a line headed by the entry shows the natural chain unless it says otherwise.
UniProt Q8TB37: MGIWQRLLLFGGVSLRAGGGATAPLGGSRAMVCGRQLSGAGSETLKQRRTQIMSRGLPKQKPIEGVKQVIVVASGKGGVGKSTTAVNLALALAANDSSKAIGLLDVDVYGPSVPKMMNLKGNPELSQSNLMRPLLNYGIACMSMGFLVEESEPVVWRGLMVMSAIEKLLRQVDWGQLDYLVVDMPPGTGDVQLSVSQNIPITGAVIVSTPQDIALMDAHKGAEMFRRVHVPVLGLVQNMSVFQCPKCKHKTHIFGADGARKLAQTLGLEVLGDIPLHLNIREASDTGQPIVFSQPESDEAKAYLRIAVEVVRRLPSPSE
UniProt P04181: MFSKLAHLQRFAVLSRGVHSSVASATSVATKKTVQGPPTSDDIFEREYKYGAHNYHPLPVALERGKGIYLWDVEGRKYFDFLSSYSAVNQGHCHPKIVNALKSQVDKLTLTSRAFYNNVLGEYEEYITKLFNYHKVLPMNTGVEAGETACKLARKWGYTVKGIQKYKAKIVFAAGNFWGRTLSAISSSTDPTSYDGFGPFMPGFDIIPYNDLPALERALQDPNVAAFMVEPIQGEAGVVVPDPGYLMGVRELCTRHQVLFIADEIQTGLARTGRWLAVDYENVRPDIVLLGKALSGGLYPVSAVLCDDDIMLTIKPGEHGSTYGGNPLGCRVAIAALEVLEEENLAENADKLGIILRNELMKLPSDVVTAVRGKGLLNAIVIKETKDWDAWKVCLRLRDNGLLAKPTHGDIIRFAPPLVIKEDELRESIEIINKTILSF
UniProt Q9BW91: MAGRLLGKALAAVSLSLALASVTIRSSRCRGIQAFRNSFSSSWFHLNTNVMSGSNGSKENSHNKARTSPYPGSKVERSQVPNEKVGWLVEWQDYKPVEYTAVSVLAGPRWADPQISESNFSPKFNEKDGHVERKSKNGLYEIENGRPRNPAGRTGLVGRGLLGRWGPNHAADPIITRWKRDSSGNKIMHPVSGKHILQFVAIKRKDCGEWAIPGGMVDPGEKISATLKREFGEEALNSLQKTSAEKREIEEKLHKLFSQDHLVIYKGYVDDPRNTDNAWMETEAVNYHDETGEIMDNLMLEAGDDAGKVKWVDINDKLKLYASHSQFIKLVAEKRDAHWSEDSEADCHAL
UniProt Q8NFH4: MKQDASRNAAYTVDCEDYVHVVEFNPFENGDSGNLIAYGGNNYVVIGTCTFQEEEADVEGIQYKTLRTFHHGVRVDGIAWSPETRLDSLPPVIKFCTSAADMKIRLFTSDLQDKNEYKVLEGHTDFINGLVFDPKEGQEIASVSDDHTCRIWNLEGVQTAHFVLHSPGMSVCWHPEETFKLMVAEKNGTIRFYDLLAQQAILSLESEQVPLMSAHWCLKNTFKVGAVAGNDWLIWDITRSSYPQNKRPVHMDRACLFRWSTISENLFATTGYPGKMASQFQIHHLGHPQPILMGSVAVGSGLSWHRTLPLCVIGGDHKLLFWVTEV
UniProt Q9UKX7: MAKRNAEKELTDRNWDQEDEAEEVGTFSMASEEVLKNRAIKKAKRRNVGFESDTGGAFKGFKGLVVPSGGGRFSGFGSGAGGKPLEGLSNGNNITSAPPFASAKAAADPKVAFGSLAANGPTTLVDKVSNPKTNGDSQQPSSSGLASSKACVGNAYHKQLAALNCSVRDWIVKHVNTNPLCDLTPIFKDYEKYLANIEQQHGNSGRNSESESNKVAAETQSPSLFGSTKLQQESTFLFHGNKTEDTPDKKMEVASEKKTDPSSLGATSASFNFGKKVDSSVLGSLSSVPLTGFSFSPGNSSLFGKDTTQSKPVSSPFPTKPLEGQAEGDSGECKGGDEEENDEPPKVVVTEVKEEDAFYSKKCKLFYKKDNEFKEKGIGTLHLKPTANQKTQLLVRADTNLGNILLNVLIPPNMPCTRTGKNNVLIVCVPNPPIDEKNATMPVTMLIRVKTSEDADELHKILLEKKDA
UniProt P61970, whole entry, looked up: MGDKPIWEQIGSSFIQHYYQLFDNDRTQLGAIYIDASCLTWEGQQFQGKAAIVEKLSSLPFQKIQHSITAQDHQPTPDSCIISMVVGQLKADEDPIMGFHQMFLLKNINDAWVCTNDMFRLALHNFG
UniProt Q9Y5Y2: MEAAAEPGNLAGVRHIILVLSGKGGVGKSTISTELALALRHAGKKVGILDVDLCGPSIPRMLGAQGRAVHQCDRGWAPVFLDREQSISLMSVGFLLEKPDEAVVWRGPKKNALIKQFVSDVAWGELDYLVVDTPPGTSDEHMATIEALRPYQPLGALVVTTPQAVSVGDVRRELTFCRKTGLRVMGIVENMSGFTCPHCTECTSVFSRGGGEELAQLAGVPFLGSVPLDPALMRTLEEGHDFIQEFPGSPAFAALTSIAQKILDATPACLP
UniProt P49757: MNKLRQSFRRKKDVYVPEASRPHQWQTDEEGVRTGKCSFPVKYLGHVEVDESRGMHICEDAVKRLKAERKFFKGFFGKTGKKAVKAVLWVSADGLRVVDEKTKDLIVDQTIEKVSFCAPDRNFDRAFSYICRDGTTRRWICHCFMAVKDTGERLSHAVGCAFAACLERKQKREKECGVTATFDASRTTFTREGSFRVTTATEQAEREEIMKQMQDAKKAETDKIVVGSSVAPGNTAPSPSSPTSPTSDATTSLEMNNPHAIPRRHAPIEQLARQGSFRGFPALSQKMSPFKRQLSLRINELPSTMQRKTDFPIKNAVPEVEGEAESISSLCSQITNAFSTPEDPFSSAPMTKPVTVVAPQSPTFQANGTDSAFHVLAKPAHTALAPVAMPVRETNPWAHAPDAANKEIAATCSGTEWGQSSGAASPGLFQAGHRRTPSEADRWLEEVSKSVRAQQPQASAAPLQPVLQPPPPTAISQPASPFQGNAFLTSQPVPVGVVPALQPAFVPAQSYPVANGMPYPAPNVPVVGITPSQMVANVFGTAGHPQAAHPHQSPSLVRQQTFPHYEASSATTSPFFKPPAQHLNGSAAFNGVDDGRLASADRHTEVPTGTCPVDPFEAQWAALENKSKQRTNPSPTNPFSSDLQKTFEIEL
UniProt Q8WVJ2: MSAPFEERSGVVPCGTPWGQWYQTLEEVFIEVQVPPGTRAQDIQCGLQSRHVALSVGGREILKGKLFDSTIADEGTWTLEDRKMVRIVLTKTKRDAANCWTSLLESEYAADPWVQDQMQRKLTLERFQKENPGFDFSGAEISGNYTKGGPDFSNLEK
UniProt Q01968: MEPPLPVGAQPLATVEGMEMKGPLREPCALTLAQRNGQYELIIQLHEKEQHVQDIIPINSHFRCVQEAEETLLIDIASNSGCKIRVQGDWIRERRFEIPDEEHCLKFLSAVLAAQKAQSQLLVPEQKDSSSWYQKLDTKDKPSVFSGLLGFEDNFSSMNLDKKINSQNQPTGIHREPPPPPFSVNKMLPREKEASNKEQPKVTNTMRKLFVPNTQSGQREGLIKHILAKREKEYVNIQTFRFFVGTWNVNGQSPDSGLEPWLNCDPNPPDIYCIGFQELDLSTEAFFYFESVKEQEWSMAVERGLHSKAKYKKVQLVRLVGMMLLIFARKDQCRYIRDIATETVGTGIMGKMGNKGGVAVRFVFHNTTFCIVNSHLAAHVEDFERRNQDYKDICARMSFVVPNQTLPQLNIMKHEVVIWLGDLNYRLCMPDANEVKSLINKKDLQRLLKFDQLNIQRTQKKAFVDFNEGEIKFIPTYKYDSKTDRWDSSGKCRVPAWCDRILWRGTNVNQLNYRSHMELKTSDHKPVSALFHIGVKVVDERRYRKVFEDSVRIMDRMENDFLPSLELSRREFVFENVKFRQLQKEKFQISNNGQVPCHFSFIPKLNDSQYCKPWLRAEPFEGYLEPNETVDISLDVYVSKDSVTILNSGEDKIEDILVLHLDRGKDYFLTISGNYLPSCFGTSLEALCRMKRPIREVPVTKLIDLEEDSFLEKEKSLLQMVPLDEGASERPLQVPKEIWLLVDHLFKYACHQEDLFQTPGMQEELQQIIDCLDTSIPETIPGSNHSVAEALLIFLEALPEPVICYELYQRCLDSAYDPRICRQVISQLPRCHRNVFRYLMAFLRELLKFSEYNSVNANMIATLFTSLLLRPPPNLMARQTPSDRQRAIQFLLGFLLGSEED
UniProt Q8TEM1: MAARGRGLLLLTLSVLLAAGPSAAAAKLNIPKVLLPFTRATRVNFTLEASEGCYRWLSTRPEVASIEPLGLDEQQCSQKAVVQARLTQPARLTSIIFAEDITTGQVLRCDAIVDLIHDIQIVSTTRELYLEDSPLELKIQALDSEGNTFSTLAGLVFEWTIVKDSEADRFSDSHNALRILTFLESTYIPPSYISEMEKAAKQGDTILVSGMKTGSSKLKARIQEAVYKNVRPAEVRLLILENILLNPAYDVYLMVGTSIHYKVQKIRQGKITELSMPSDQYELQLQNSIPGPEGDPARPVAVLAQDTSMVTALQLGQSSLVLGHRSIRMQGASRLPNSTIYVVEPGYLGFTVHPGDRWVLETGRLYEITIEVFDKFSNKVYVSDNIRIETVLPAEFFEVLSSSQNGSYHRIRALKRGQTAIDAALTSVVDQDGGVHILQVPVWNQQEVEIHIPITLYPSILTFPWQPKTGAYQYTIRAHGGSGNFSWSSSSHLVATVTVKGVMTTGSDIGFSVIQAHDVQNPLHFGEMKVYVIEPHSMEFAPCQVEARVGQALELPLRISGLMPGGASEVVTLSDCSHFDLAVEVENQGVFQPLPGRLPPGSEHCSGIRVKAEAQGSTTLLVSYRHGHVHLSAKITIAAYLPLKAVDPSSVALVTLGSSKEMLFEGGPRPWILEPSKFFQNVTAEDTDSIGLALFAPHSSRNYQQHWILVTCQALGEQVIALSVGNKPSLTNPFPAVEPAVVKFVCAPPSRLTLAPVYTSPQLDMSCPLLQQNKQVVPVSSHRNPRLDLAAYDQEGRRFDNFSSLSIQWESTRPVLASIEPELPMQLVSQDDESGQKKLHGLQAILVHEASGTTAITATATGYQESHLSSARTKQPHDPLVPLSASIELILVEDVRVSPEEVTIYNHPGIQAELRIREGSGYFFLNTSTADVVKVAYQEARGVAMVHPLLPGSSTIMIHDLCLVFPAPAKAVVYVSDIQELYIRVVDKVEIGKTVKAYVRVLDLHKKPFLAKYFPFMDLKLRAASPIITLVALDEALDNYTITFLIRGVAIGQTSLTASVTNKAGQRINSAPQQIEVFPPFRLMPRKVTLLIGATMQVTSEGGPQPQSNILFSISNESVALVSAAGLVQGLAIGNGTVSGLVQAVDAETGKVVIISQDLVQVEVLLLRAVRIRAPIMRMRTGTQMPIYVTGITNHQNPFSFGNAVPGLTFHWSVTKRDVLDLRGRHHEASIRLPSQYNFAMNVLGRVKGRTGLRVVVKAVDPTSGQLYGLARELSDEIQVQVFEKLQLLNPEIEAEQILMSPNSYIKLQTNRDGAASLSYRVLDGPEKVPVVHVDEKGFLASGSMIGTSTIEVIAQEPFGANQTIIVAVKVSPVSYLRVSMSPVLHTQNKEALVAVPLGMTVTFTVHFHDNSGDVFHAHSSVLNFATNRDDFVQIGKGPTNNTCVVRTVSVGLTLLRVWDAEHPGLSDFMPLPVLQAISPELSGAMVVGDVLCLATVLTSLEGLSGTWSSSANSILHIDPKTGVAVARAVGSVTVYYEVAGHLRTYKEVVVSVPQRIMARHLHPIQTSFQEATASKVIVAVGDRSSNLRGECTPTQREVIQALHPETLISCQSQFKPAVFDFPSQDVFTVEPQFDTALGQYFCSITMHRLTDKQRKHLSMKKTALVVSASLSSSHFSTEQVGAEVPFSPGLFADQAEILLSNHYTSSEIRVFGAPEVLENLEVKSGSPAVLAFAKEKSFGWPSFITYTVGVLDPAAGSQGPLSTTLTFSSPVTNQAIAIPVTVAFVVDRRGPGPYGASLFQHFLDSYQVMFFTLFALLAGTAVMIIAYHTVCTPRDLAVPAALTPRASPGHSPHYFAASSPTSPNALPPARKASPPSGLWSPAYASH
UniProt Q5TFE4: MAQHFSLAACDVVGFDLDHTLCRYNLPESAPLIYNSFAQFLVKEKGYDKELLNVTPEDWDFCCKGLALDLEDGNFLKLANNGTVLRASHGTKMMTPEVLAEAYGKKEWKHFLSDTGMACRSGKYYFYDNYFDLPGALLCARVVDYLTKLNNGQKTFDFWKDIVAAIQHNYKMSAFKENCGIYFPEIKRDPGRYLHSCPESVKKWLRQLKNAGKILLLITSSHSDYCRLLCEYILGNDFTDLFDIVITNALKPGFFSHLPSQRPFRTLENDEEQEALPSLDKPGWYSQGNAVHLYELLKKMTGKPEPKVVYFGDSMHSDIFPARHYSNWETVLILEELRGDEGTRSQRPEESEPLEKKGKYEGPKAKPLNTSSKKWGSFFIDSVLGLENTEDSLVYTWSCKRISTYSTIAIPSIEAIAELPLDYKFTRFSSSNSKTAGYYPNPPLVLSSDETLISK
UniProt O43809, whole entry, looked up: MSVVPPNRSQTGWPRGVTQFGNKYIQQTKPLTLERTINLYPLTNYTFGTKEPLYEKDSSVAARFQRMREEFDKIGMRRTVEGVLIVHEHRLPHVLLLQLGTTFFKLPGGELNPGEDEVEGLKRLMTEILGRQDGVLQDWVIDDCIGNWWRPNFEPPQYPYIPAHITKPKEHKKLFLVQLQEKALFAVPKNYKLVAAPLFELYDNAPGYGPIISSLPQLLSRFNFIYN

This is one part of the list.
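Further: competitive chemoproteomic profiling in live THP-1 cells with an iodoacetamide desthiobiotin (IA-DTB) probe, comparing probe-labelled peptide intensities in compound-treated cells against DMSO-treated controls.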

Compound in the first assay: CC1Cc2ccccc2N1C(=O)C1CCCN(C1)C(=O)CCl (mixture of isomers) [TRIM25 ligand 11 (diastereomer mixture)]
Kind of assay: probe-labelled cysteine peptide fold change vs DMSO (competition) (log2 fold change); higher = less target engagement (more negative = stronger competition). The note with it: 10 µM; THP-1; incubation time: 4 h.
For “NUP160_Q12769_1131_QGNCYLAALNCLR (UniProt Q12769)”, the “probe-labelled cysteine peptide fold change” value is 0.221.
With “NUBPL_Q8TB37_244_VHVPVLGLVQNMSVFQCPK (UniProt Q8TB37)”, the “probe-labelled cysteine peptide fold change” value came to 0.0863.
On the same count and under the same terms, with “NUFIP1_Q9UHK0_199_CPELDCSFTAHEK (UniProt Q9UHK0)” the figure was -0.0179; with “NXF3_Q9H4D5_214_LAMNQQCDVSQEALDIQR (UniProt Q9H4D5)”, 0.175.
In the case of “OGA_O60502_596_ANSSVVSVNCK (UniProt O60502)”, the “probe-labelled cysteine peptide fold change” value is -0.0358.
Regarding “NUP62_P37198_475_DIIEHLNTSGAPADTSDPLQQICK (UniProt P37198)”, the “probe-labelled cysteine peptide fold change” value was -0.0721.
The same measure, in the same setting: with “NTMT1_Q9BV86_64_TGTSCALDCGAGIGR (UniProt Q9BV86)” the figure was 0.137.
For the target “OAT_P04181_150_VLPMNTGVEAGETACK (UniProt P04181)”, the “probe-labelled cysteine peptide fold change” value turned out to be 0.0276.
As to “NUDT9_Q9BW91_347_RDAHWSEDSEADCHAL (UniProt Q9BW91)”, the “probe-labelled cysteine peptide fold change” value stood at 0.138.
On to “NUP37_Q8NFH4_311_TLPLCVIGGDHK (UniProt Q8NFH4)”, for which the “probe-labelled cysteine peptide fold change” value came to 0.0221.
With “NUP88_Q99567_608_QLEDLSYCR (UniProt Q99567)”, the “probe-labelled cysteine peptide fold change” value is -0.106.
“NVL_O15381_785_CDCYTGADLSALVR (UniProt O15381)”: the “probe-labelled cysteine peptide fold change” value is -0.0967.
Turning to “NUP50_Q9UKX7_333_PLEGQAEGDSGECK (UniProt Q9UKX7)”, the “probe-labelled cysteine peptide fold change” value was 0.0058.
Turning to “NUTF2_P61970_114_NINDAWVCTNDMFR (UniProt P61970)”, the “probe-labelled cysteine peptide fold change” value was -0.0149.
On the same count and under the same terms, then “OGDH_Q02218_395_AEQFYCGDTEGK (UniProt Q02218)”, with 0.13; and “NUBP2_Q9Y5Y2_72_AVHQCDR (UniProt Q9Y5Y2)”, with -0.0198.
On the same count and under the same terms, with “NUMB_P49757_58_GMHICEDAVK (UniProt P49757)” the figure was 0.0145.
As for “NUP155_O75694_667_HNGICIYFSR (UniProt O75694)”, the “probe-labelled cysteine peptide fold change” value was -0.0348.
Take “NUTF2_P61970_80_IQHSITAQDHQPTPDSCIISMVVGQLK (UniProt P61970)”: the “probe-labelled cysteine peptide fold change” value was found to be 0.00644.
Regarding “OAS1_P00973_331_QLAQEAEAWLNYPCFK (UniProt P00973)”, the “probe-labelled cysteine peptide fold change” value is -0.16.
As for “NUP93_Q8N1F7_397_CDVTDNQSEVADK (UniProt Q8N1F7)”, the “probe-labelled cysteine peptide fold change” value turned out to be 0.118.
Same read-out and setting: with “NUDCD2_Q8WVJ2_45_AQDIQCGLQSR (UniProt Q8WVJ2)” the figure was -0.0124; with “NVL_O15381_431_FDREICLGIPDEASR (UniProt O15381)”, -0.0502; with “OAS3_Q9Y6K5_850_AQLEACQQER (UniProt Q9Y6K5)”, 0.268.
“NUMA1_Q14980_803_ELAEAMAAQHTAESECEQLVK (UniProt Q14980)”: the “probe-labelled cysteine peptide fold change” value was found to be 0.093.
The same measure, in the same setting: with “OCRL_Q01968_104_RFEIPDEEHCLK (UniProt Q01968)” the figure was -0.0187; with “NUMA1_Q14980-4_1729_SREPQAKPQLDLSIDSLDLSCEEGTPLSITR (UniProt Q14980)”, -0.128.
For “NUP98_P52948_1234_HSTVHVDELCPLIVPNLGVAVIHDYADWVK (UniProt P52948)”, the “probe-labelled cysteine peptide fold change” value worked out at 0.00413.
For the target “NUP88_Q99567_447_CFVEHILCTK (UniProt Q99567)”, the “probe-labelled cysteine peptide fold change” value worked out at 0.0557.
Take “NUP210_Q8TEM1_962_GVAMVHPLLPGSSTIMIHDLCLVFPAPAK (UniProt Q8TEM1)”: the “probe-labelled cysteine peptide fold change” value turned out to be 0.0835.
Take “NUP155_O75694_551_LHQEDQACATCLILACSTAACDR (UniProt O75694)”: the “probe-labelled cysteine peptide fold change” value stood at 0.24.
For the target “NUP155_O75694_373_LYFSTCPFR (UniProt O75694)”, the “probe-labelled cysteine peptide fold change” value is 0.15.
Same read-out and setting: then “NT5DC1_Q5TFE4_63_ELLNVTPEDWDFCCK (UniProt Q5TFE4)”, with 0.0602; and “NUP160_Q12769_1166_RNHDGECTAAPTNR (UniProt Q12769)”, with 0.139.
As to “NUDT21_O43809_144_QDGVLQDWVIDDCIGNWWR (UniProt O43809)”, the “probe-labelled cysteine peptide fold change” value was 0.209.
Regarding “NUB1_Q9Y5A7_400_ACDGNVDHAATHITNR (UniProt Q9Y5A7)”, the “probe-labelled cysteine peptide fold change” value came to 0.204.

Staying with this assay, now noted: 50 µM; THP-1; incubation time: 4 h.
Consider “NUP160_Q12769_1131_QGNCYLAALNCLR (UniProt Q12769)”, for which the “probe-labelled cysteine peptide fold change” value stood at 0.0848.
Turning to “NUBPL_Q8TB37_244_VHVPVLGLVQNMSVFQCPK (UniProt Q8TB37)”, the “probe-labelled cysteine peptide fold change” value is 0.0228.
As to “NUFIP1_Q9UHK0_199_CPELDCSFTAHEK (UniProt Q9UHK0)”, the “probe-labelled cysteine peptide fold change” value was 0.00519.
Take “NXF3_Q9H4D5_214_LAMNQQCDVSQEALDIQR (UniProt Q9H4D5)”: the “probe-labelled cysteine peptide fold change” value is 0.248.
Same read-out and setting: with “OGA_O60502_596_ANSSVVSVNCK (UniProt O60502)” the figure was -0.308; with “NUP62_P37198_475_DIIEHLNTSGAPADTSDPLQQICK (UniProt P37198)”, -0.0994.
For “NTMT1_Q9BV86_64_TGTSCALDCGAGIGR (UniProt Q9BV86)”, the “probe-labelled cysteine peptide fold change” value came to 0.121.
With “OAT_P04181_150_VLPMNTGVEAGETACK (UniProt P04181)”, the “probe-labelled cysteine peptide fold change” value was 0.0487.
For the target “NUDT9_Q9BW91_347_RDAHWSEDSEADCHAL (UniProt Q9BW91)”, the “probe-labelled cysteine peptide fold change” value is -0.0487.
Turning to “NUP37_Q8NFH4_311_TLPLCVIGGDHK (UniProt Q8NFH4)”, the “probe-labelled cysteine peptide fold change” value stood at 0.0514.
As for “NUP88_Q99567_608_QLEDLSYCR (UniProt Q99567)”, the “probe-labelled cysteine peptide fold change” value is -0.157.
The same measure, in the same setting: with “NVL_O15381_785_CDCYTGADLSALVR (UniProt O15381)” the figure was -0.0832; with “NUP50_Q9UKX7_333_PLEGQAEGDSGECK (UniProt Q9UKX7)”, 0.166; with “NUTF2_P61970_114_NINDAWVCTNDMFR (UniProt P61970)”, -0.0609.
On the same count and under the same terms, then “OGDH_Q02218_395_AEQFYCGDTEGK (UniProt Q02218)”, with 0.282.
Turning to “NUBP2_Q9Y5Y2_72_AVHQCDR (UniProt Q9Y5Y2)”, the “probe-labelled cysteine peptide fold change” value stood at 0.214.
“NUMB_P49757_58_GMHICEDAVK (UniProt P49757)”: the “probe-labelled cysteine peptide fold change” value is -0.0288.
“NUP155_O75694_667_HNGICIYFSR (UniProt O75694)”: the “probe-labelled cysteine peptide fold change” value amounted to 0.207.
Consider “NUTF2_P61970_80_IQHSITAQDHQPTPDSCIISMVVGQLK (UniProt P61970)”, for which the “probe-labelled cysteine peptide fold change” value was -0.0494.
Regarding “OAS1_P00973_331_QLAQEAEAWLNYPCFK (UniProt P00973)”, the “probe-labelled cysteine peptide fold change” value was -0.193.
With “NUP93_Q8N1F7_397_CDVTDNQSEVADK (UniProt Q8N1F7)”, the “probe-labelled cysteine peptide fold change” value was -0.0788.
Turning to “NUDCD2_Q8WVJ2_45_AQDIQCGLQSR (UniProt Q8WVJ2)”, the “probe-labelled cysteine peptide fold change” value worked out at 0.0403.
Still for that read-out and setting: then “NVL_O15381_431_FDREICLGIPDEASR (UniProt O15381)”, with 0.0728; and “OAS3_Q9Y6K5_850_AQLEACQQER (UniProt Q9Y6K5)”, with 0.174.
With “NUMA1_Q14980_803_ELAEAMAAQHTAESECEQLVK (UniProt Q14980)”, the “probe-labelled cysteine peptide fold change” value was 0.0727.
“OCRL_Q01968_104_RFEIPDEEHCLK (UniProt Q01968)”: the “probe-labelled cysteine peptide fold change” value was -0.0562.
As to “NUMA1_Q14980-4_1729_SREPQAKPQLDLSIDSLDLSCEEGTPLSITR (UniProt Q14980)”, the “probe-labelled cysteine peptide fold change” value was -0.0534.
Turning to “NUP98_P52948_1234_HSTVHVDELCPLIVPNLGVAVIHDYADWVK (UniProt P52948)”, the “probe-labelled cysteine peptide fold change” value was -0.0378.
Take “NUP88_Q99567_447_CFVEHILCTK (UniProt Q99567)”: the “probe-labelled cysteine peptide fold change” value was 0.0669.
As for “NUP210_Q8TEM1_962_GVAMVHPLLPGSSTIMIHDLCLVFPAPAK (UniProt Q8TEM1)”, the “probe-labelled cysteine peptide fold change” value came to 0.0989.
For “NUP155_O75694_551_LHQEDQACATCLILACSTAACDR (UniProt O75694)”, the “probe-labelled cysteine peptide fold change” value was 0.141.
For “NUP155_O75694_373_LYFSTCPFR (UniProt O75694)”, the “probe-labelled cysteine peptide fold change” value stood at 0.262.
Regarding “NT5DC1_Q5TFE4_63_ELLNVTPEDWDFCCK (UniProt Q5TFE4)”, the “probe-labelled cysteine peptide fold change” value turned out to be 0.194.
Regarding “NUP160_Q12769_1166_RNHDGECTAAPTNR (UniProt Q12769)”, the “probe-labelled cysteine peptide fold change” value came out at 0.0275.
As for “NUDT21_O43809_144_QDGVLQDWVIDDCIGNWWR (UniProt O43809)”, the “probe-labelled cysteine peptide fold change” value was 0.458.
Still for that read-out and setting: then “NUB1_Q9Y5A7_400_ACDGNVDHAATHITNR (UniProt Q9Y5A7)”, with 0.013.
